Measured values reported in patent US20200093890A1, “COMPOSITIONS AND METHODS FOR TREATING ALZHEIMER'S DISEASE” (CASE WESTERN RESERVE UNIVERSITY, priority 2017, published 2020).
No constants are given. Whether binding was seen depends on the method and setting. In cells and extracts the contact can be indirect. Some entries that bind do so weakly or less than the wild type.

Sequences of proteins named here, by UniProt entry; tags and fusion partners are left off. Residues count along the entry.
UniProt P56818, residues 46-501: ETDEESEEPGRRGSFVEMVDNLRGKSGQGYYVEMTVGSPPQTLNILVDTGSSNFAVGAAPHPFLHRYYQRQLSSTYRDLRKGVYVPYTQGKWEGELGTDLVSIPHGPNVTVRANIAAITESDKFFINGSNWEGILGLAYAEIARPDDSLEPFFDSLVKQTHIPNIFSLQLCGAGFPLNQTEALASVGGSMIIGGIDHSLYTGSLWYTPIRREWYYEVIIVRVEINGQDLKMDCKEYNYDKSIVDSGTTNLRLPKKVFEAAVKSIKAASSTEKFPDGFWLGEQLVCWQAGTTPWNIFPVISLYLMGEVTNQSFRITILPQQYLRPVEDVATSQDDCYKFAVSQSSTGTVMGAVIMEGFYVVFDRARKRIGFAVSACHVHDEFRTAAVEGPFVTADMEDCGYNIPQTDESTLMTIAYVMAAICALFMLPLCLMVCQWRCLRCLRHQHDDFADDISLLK
UniProt Q64605, residues 30-1907: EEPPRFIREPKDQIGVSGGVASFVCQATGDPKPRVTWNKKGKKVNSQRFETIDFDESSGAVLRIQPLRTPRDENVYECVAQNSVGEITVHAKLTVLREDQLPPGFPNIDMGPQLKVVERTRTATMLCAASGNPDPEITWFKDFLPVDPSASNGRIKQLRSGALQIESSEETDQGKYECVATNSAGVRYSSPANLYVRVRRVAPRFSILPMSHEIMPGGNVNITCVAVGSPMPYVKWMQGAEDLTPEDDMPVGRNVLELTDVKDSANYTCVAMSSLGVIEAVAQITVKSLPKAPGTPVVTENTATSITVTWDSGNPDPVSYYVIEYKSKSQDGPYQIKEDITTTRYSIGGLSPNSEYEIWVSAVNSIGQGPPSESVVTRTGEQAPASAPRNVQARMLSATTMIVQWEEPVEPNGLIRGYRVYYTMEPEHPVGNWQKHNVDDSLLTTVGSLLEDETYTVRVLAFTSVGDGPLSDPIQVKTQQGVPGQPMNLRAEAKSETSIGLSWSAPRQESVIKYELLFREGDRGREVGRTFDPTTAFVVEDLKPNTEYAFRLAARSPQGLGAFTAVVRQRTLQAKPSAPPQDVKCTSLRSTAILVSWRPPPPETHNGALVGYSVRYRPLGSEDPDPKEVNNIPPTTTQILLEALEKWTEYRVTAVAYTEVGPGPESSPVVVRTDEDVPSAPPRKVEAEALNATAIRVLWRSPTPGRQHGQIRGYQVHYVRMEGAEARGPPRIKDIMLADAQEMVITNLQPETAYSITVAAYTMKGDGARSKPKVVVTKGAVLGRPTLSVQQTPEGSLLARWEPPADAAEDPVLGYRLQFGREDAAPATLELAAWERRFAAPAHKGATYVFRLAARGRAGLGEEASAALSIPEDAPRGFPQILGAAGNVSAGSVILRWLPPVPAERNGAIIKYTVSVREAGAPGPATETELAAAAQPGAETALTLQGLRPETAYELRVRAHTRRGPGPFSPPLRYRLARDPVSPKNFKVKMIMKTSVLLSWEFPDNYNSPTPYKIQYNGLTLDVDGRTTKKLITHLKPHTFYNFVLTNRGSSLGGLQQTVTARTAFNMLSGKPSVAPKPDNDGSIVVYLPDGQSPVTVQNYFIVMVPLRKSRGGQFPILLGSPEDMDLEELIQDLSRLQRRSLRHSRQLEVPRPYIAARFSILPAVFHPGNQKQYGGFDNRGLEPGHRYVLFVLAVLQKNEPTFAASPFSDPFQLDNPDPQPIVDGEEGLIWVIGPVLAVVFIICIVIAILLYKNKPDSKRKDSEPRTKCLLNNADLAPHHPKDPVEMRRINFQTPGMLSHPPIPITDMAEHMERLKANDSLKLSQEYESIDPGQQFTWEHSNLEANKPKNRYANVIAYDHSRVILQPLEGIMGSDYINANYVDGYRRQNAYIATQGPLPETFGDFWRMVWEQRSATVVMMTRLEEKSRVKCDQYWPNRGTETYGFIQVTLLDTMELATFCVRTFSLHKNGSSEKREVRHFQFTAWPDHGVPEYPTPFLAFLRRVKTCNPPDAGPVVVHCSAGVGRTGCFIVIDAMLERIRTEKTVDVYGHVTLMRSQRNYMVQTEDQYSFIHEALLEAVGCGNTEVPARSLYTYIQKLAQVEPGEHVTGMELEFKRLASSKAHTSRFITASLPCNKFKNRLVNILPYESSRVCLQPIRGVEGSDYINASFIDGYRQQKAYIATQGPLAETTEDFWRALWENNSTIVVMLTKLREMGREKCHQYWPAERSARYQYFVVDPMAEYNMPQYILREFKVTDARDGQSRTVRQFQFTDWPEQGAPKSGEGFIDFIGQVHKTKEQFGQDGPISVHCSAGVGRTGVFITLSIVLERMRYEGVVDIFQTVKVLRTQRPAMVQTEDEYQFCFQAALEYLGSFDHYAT

Legend:
[1] = target: β-amyloid precursor protein (APP), full length, mouse, endogenous in forebrain lysate (mouse) (UniProt P12023); assay: co-immunoprecipitation from mouse brain homogenates in buffers of serially increased detergent stringency
[2] = target: β-amyloid precursor protein (APP), full length, mouse, endogenous in forebrain lysate (mouse) (UniProt P12023); assay: co-immunoprecipitation from mouse forebrain lysate, IP with anti-BACE1 antibody, blot for full length APP, NP40 buffer with 0 to 0.4% SDS
[3] = target: β-amyloid precursor protein (APP), rat, endogenous in brain homogenate (rat) (UniProt P08592); assay: co-immunoprecipitation from rat brain homogenates, western blot

Row | binding [1] | binding [2] | binding [3] | Substance
1 | binds | binds | – | BACE1, the β-secretase in the brain, mouse, endogenous in forebrain lysate (from UniProt P56818 46-501) (enzyme)
2 | – | – | binds | PTPσ (protein tyrosine phosphatase sigma), rat, endogenous in brain homogenate (from UniProt Q64605 30-1907) (receptor)
